Source: US20150079590A1, “CHARACTERIZATION AND ANALYSIS OF THE COMPOSITION AND DYNAMICS OF THE MAMMALIAN RIBOPROTEOME” (Beth Israel Deaconess Medical Center, Inc., priority 2013, published 2015)

Tested on: LARP1 and RpL4 in PPC1 cells
Assay: Western blot of individual sucrose gradient fractions of PPC1 cell lysates treated with DMSO or PP242
Format: cell-based, human
Description: Polysome profiles were prepared from MEF and different prostate cancer cell lines as follows. MEF were seeded at 2×10^6 cells/15 cm and PPC1, PC3, Du145, RWPE1 and PWR1E cells seeded at 10×10^6 cells/15 cm dish and cultured overnight to ensure sub confluent cultures for polysome analysis. PPC1 cells were treated the following day with either DMSO, rapamycin (20 nM) or PP242 (500 nM) for three hours. For polysome preparation, cells were then incubated with cycloheximide at a final concentration of 100 μg/mL for a period of 15 mins. Plates were then washed with ice-cold PBS containing 100 μg/mL cycloheximide (PBS/CHX), scraped, and collected in ice-cold PBS/CHX. […] Lysates were centrifuged at 7,000 rpm for 5 min at 4° C., and the supernatant carefully removed. Protein concentrations for lysates were measured by Bradford assay, and equal amounts of protein loaded on a 15%-50% sucrose gradient containing 100 μg/mL cycloheximide, 0.2 mg/mL heparin and 1 mM DTT. Gradients were centrifuged at 36,000 rpm for 3 hrs at 4° C. in a Beckman SW40 rotor, and subsequently fractionated using an ISCO-Foxy Jr. fraction collector. Polysome profiles were reordered using a UA-6 absorbance detector connected to the fraction collector and measuring absorbance at 254 nm. […]

For CC(C)n1nc(-c2cc3cc(O)ccc3[nH]2)c2c(N)ncnc21 [PP242], the “shift of LARP1 and RpL4 across sucrose gradient fractions” value was “can be readily observed”.
